Laboratory results from PubChem BioAssay AID2685 (National Center for Advancing Translational Sciences (NCATS), 2010).
Several values for one entry are separate records, joined by “and”; a condition that tells them apart may be missing. Equal entries are not always repeated. Some of the results follow. These are further read-outs of the screen, such as a control signal, another cell line or another target. No call is given for them. Compounds called inactive in the main read-out are mostly missing here. Words in brackets tell the shape of the fitted curve; partial curves, single points and poor fits give uncertain potencies.

Experiment: qHTS Assay for Lipid Storage Modulators in Drosophila S3 Cells;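 for cell number change: cells counted by Cell Tracker Red CMTPX staining in the red channel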
Settings: BODIPY lipid droplet fluorescence, 18-24 h; for cell number change: measured here: cell count max response, cells fed with added oleic acid
How it was run: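 Drosophila S3 cells loaded with oleic acid (400 uM, as added) and compounds at several concentrations; lipid droplets imaged by 488-nm laser-scanning cytometry, 500–530 nm intensity and object ratio to cell channel. Percent activity normalized to 20 uM Triacsin C.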

[1] = measured here: lipid fluorescence (Fed channel) AC50, cells fed with added oleic acid
[2] = measured here: cell number channel AC50, cells fed with added oleic acid

| SMILES | cell number change | AC50 [1] | AC50 [2] |
| --- | --- | --- | --- |
| COc1ccccc1C(=O)NCC(=O)OCC(=O)Nc1cccc(S(=O)(=O)N(C)C)c1 | -27% | 6.51 µM [falling, single point] | – |
| C=CCc1ccc(OCCCCN2CCC(C)CC2)c(OC)c1 | 3.21% | 1.84 µM [rising, single point] | 3.66 µM [rising, single point] |
| O=C1CCCC(O)=C1N=Nc1cccc(C(=O)O)c1 | -39.1% | 6.51 µM [falling, single point] | 3.66 µM [falling, full curve, poor fit] |
| NC(=O)c1ccc(N=C2C(=O)Nc3ccc([N+](=O)[O-])cc32)cc1 | -29.6% | 29.1 µM [falling, single point] | – |
| CCOC(=O)/C(N=Nc1sc(C(=O)OCC)c(C)c1C(=O)OCC)=C(\C)O | 7.36% | 0.461 µM [rising, full curve, poor fit] | – |
| COC(C(=O)Nc1ccccc1C(=O)N1CCOCC1)c1ccccc1 (centres undefined) | – | 4.11 µM [rising, full curve] | – |
| O=C(NC1CC1)c1cc2ccccc2o1 | -23.3% | – | – |
| CC1CCN(CCNC(=O)C2CCCN(S(=O)(=O)c3cccc4nonc34)C2)CC1 (centres undefined) | -0.419% | 0.164 µM [falling, partial curve, poor fit] | – |
| COc1cc(C(=O)Nc2ccc(O)cc2)ccc1OC(C)=O | 1.45% | 16.4 µM [falling, partial curve] | – |
| CC(=O)c1ccccc1NC(=O)c1ccc2c(c1)NC(=O)C(C)S2 (centres undefined) | 30.5% | – | 29.1 µM [rising, single point] |
| COc1cccc(CSc2nnc(C(F)(F)F)n2Cc2ccc(F)cc2)c1 | 35.3% | 29.1 µM [rising, single point] | 25.9 µM [rising, single point] |
| CC(C)(C)NC(=O)CC(c1ccccc1)c1ccccc1O (centres undefined) | – | 0.651 µM [falling, single point] | – |
| CCOC(=O)[C@@H]1[C@H]2COc3ccccc3[C@@H]2N2C(=O)N(c3cccc(Cl)c3)C(=O)[C@]12C | 29.9% | – | – |
| Cc1cc2ncn(CCCCOc3ccccc3)c2cc1C | -49% | 2.59 µM [rising, partial curve] | 25.9 µM [falling, single point] |
| COc1ccccc1/C=N/n1c(C)nnc1-n1nc(C)cc1C | -3.25% | 0.00517 µM [falling, full curve, poor fit] | – |
| Cc1ccc2c(c1)cc1c(=O)n(CC(=O)NCc3ccccn3)nc(C)n12 | 2.47% | – | 1.64 µM [rising, partial curve, poor fit] |
| CN(CC(=O)Nc1ccccc1Cl)C(=O)C1CCN(S(=O)(=O)c2ccc3c(c2)OCCO3)CC1 | 43% | 23.1 µM [rising, single point] | 23.1 µM [rising, single point] |
| CN(C)CCCOC(=O)c1cc2ccccc2o1 | -12% | 1.46 µM [falling, full curve, poor fit] | – |
| NC(=O)C1(C(N)=O)OC1c1ccc(Cl)cc1Cl (centres undefined) | -16.7% | 3.26 µM [falling, full curve] | 0.116 µM [falling, full curve, poor fit] |
| COc1cc2cnc(Cl)nc2cc1OC | -26.6% | 18.4 µM [falling, partial curve] | – |

Filtered by structure, the compounds so far with a halogen (5)

| SMILES | cell number change | AC50 [1] | AC50 [2] |
| --- | --- | --- | --- |
| COc1cccc(CSc2nnc(C(F)(F)F)n2Cc2ccc(F)cc2)c1 | 35.3% | 29.1 µM [rising, single point] | 25.9 µM [rising, single point] |
| CCOC(=O)[C@@H]1[C@H]2COc3ccccc3[C@@H]2N2C(=O)N(c3cccc(Cl)c3)C(=O)[C@]12C | 29.9% | – | – |
| CN(CC(=O)Nc1ccccc1Cl)C(=O)C1CCN(S(=O)(=O)c2ccc3c(c2)OCCO3)CC1 | 43% | 23.1 µM [rising, single point] | 23.1 µM [rising, single point] |
| NC(=O)C1(C(N)=O)OC1c1ccc(Cl)cc1Cl (centres undefined) | -16.7% | 3.26 µM [falling, full curve] | 0.116 µM [falling, full curve, poor fit] |
| COc1cc2cnc(Cl)nc2cc1OC | -26.6% | 18.4 µM [falling, partial curve] | – |

(list continues)

| SMILES | cell number change | AC50 [1] | AC50 [2] |
| --- | --- | --- | --- |
| O=c1[nH]c(S)nc2sc3c(c12)CCCC3 | -23.1% | 1.84 µM [falling, partial curve] | – |
| CCOC(=O)c1cc(C#N)c(C)nc1N(CC)CC | -1.41% | 0.731 µM [falling, full curve, poor fit] | – |
| Cc1ccc2[nH]c(C(=O)O)c(NC(=O)c3ccccc3[N+](=O)[O-])c2c1 | -1.6% | – | – |
| CCS(=O)(=O)c1ccc2c(c1)N(S(=O)(=O)c1cccs1)CC(C(=O)O)O2 (centres undefined) | -25.5% | 1.41 µM [falling, full curve, poor fit] | 3.98 µM [falling, full curve, poor fit] |
| CC(C)(O)C#Cc1ccc(CN2CCC(n3nccc3NC(=O)C3CC3)CC2)cc1 | 3.4% | 6.51 µM [rising, single point] | – |
| O=C(CSCCO)Nc1ccc([N+](=O)[O-])cc1 | 1.27% | – | 3.66 µM [falling, single point] |
| CCOc1ccccc1OCC(=O)Nc1c(C)n(C)n(-c2ccccc2)c1=O | -2.57% | 29.1 µM [falling, single point] | – |
| O=C(Cc1n[nH]c(=O)c2ccccc12)Nc1cc(C(F)(F)F)ccc1-n1cncn1 | – | 0.461 µM [rising, partial curve, poor fit] | – |
| CS(=O)(=O)c1ccc(Sc2nc3ccccc3[nH]2)c([N+](=O)[O-])c1 | -26.2% | – | – |
| NC(=O)c1cccc(-c2noc(-c3ccccc3F)n2)c1 | -23.6% and 48.8% | 25.9 µM [falling, partial curve, poor fit] | 32.6 µM [rising, partial curve, poor fit] |
| CCN(CC(=O)Nc1ccc(NC(C)=O)cc1)C(=O)/C=C/c1c(C)nn(-c2ccc(F)cc2)c1C | 63.7% | 10.3 µM [rising, partial curve] | 5.17 µM [rising, partial curve] |
| C=Cn1cc[n+](CC(=O)c2ccc(Br)cc2)c1 | -6.59% | 20.6 µM [falling, single point] | – |
| O=C(c1ccccc1)c1cc(-c2ccccn2)c(N2CCOCC2)s1 | 10.9% | 0.731 µM [rising, partial curve] | – |
| COc1ccc(NCC(O)Cn2cnc3c2c(=O)n(C)c(=O)n3C)cc1 (centres undefined) | -13.8% | – | – |
| CCc1ccc(CN(C)CCc2ccccn2)cc1 | -72% | – | 29.1 µM [falling, single point] |
| CN(Cc1cnn(C)c1)Cc1nc(Cc2ccccc2Cl)no1 | 19.7% | – | – |
| Cc1cc(=O)cc(C)n1-c1ccc(F)cc1F | -47.1% | 0.92 µM [falling, full curve] | 0.82 µM [falling, full curve] |
| COCCn1c(Cc2ccccc2)nnc1SC(C)C(=O)NC1CC1 (centres undefined) | 7.37% | 0.411 µM [falling, single point] | – |
| NS(=O)(=O)c1ccc(NC(=S)NC(=O)c2ccco2)cc1 | 21.6% and 4.54% | 2.91 µM [rising, single point] | – |
| O=c1c2ccccc2ncn1Cc1ccccc1 | 24.3% | 1.46 µM [rising, full curve, poor fit] | – |

| SMILES | cell number change | AC50 [1] | AC50 [2] |
| --- | --- | --- | --- |
| COC(=O)[C@H](CC(C)C)NS(=O)(=O)c1ccccc1 | 9.06% | – | – |
| Cc1cccc(NS(=O)(=O)c2cc3c4c(c2)CC(=O)N4CCC3)c1C | -74.6% | 29.1 µM [falling, single point] | 29.1 µM [falling, single point] |
| CCc1ccc(-c2nc(CSCC(=O)N3CCN(c4ncccn4)CC3)c(C)o2)cc1 | – | 4.11 µM [falling, single point] | – |
| CC(=O)c1ccc(N2C(=NC(=O)C3CCCCC3)SC3CS(=O)(=O)CC32)cc1 (centres undefined) | 15.3% | 14.6 µM [falling, partial curve, poor fit] | – |
| Cc1cc(C)n(C)c(=O)c1C#N | -24.4% | 29.1 µM [falling, single point] | – |
| COc1ccc(C(=O)OCC(=O)Nc2c(C)n(C)n(-c3ccccc3)c2=O)cc1OC | -17.7% | 29.1 µM [falling, single point] | – |
| COc1ccc([N+](=O)[O-])cc1C(=O)C(=O)c1ccccc1 | -19% | 16.4 µM [falling, single point] | – |
| CC(C(=O)NC1CCCC1)N(C(=O)c1snc(C(N)=O)c1N)c1ccc2c(c1)OCCO2 (centres undefined) | -29% | 20.6 µM [falling, single point] | – |
| CCc1cccc(NC(=O)C2CCCN(c3cnccn3)C2)c1 (centres undefined) | 14% | 6.51 µM [falling, single point] | – |
| CC(=O)Nc1ccc(OCC(=O)NCc2ccccc2)cc1 | 26.1% | 6.51 µM [rising, single point] | – |
| Cc1nc2scc(-c3cccs3)c2c(=O)o1 | 22.5% | 13 µM [rising, partial curve] | – |
| COc1ccc(OCCNC(=O)/C=C/c2ccc([N+](=O)[O-])cc2)cc1 | 24% | – | – |
| CCc1noc(C)c1C(=O)N(CCC(C)C)c1c(N)n(Cc2ccccc2)c(=O)[nH]c1=O | -15.3% | 2.31 µM [rising, partial curve] | – |
| O=C(c1ccc(Cl)cc1[N+](=O)[O-])N1CCN(c2ccccn2)CC1 | -9.24% | 1.16 µM [falling, partial curve] | – |
| Nc1c(C(=O)Nc2ccc3c(c2)OCCO3)nnn1Cc1ccccc1Cl | -24.9% | 18.4 µM [falling, single point] | – |
| COc1ccccc1NS(=O)(=O)c1cc(NC(=O)CNC(=O)c2cc(C)cc(C)c2)ccc1C | -10.2% | 5.8 µM [rising, full curve] | – |
| COc1ccc(N(C)S(=O)(=O)c2cccc(C(=O)N(C)Cc3ccc(C)o3)c2)cc1 | – | 7.31 µM [rising, partial curve] | – |
| Cc1ccnc(NC(=O)c2cccc(S(=O)(=O)N3CCN(c4ccccc4)CC3)c2)c1 | 2.83% | – | 6.51 µM [rising, single point] |
| CCc1ccc(CNC(=O)C2CCCN(c3nc4ccccc4o3)C2)cc1 (centres undefined) | 14.8% | 5.17 µM [rising, single point] | – |
| C=C(C)Cn1c(SCC(=O)O)nc2c1c(=O)[nH]c(=O)n2C | -45.3% | 5.17 µM [falling, full curve] | 4.11 µM [falling, full curve] |
